Experimental data from US20110082087A1, “COMPOUNDS FOR TREATING PAIN” (Edificio ICAT, priority 2008, published 2011).
Part of at least one peptide drawing is inferred or uncertain, most often the ends.

How the values were obtained:
[1] = Differential quenching, depth of location in the membrane; type: physicochemical; settings: phenolic ring; differential quenching with 5-NS and 16-NS
Text: Differential quenching experiments were used to estimate the depth of location of the phenolic ring of the peptides, based on a Brownian dynamics simulation (Fernandes M. X., Garcia de la Torre J., Castanho M. A. 2002. Joint determination by Brownian dynamics and fluorescence quenching of the in-depth location profile of biomolecules in membranes. Anal. Biochem. 307: 1-12.) This methodology allows to determine where the molecules are preferably inserted along the lipid bilayer. The peptides with the amide group show a greater depth of insertion, 4 Å—KTP-NH2 and 3 Å—Ibu-KTP-NH2, from the lipid/water interface. This is in agreement with KTP-NH2 having a higher affinity for lipids, as desired.

[2] = test system: rats (Wister, male); test: Tail Flick test; type: in vivo, rat; settings: i.p.
Method: (§1) In vivo behavioural anti-nociception tests were carried out in rats (Wister, male). Unless otherwise stated, compounds were administered by intra-peritoneal (i.p.) injection. For most assays, the Tail Flick and the Hot Plate tests were used.
The tail-flick test (D'Amour F. E., Smith D. L. 1941. A method for determining the loss of pain sensation. J Pharmacol Exp Ther 1941; 72:74-79) is a standard investigative tool for pain and analgesia assessment in rodents. It is based on a spinal reflex response of the tail to radiant heat. Pain sensitivity in rats was measured as they responded to the application of radiant heat to a small area of their tails. The rat's tail was placed over a window located on a platform and subjected to irradiation by an intense light beam (10 W). When the rat feels discomfort, it flicks its tail which automatically stops the timer. The reaction time from activation of the light beam to the tail flick is automatically presented on a digital display. A cut-off time of 24 s was applied. Animal reaction time is a measurement of animal resistance to pain and is used to measure efficacy of analgesics.

[3] = test system: rats (Wister, male); test: Increasing-temperature Hot Plate test; type: in vivo, rat; settings: i.p.
Method: as §1
The hot-plate test (Eddy N. B and Leimbach D. 1953. Synthetic analgesics II. Dithienylbutenyl and dithienylbutylamines J. Pharmacol. Exp. Ther. 45: 339) evaluates a supraspinally integrated response in the form of thermal pain reflexes due to footpad contact with a heated surface. During the experiments, the animal is confined in a removable clear acrylic compartment where the latency time to the first hind paw or/and jumping responses are measured. […] The response is the licking of the hindpaw, and the corresponding plate temperature represents the recorded nociceptive end-point. The advantage of Increasing-Temperature Hot-Plate test over the standard constant-temperature hot-plate test is the higher sensitivity and the lack of influences of pre-exposure to the hot-plate before testing. Animal reaction temperature is a measurement of animal resistance to pain and is used to measure efficacy of analgesics.

[4] = Partition into lipid bilayer vesicles (fluorescence titration); type: physicochemical; settings: mammal-mimetic lipid bilayer vesicle; numerical treatment of fluorescence titration
Text: We performed biophysical studies using fluorescent methodologies in order to characterize the interaction of KTP-NH2 with liposomes representing human cell membranes (Santos N. C., Prieto M. and Castanho M. A. 2003. Quantifying molecular partition into model systems of biomembranes: an emphasis on optical spectroscopic methods. Biochim Biophys Acta 1612: 123-135.). A clear interaction of KTP-NH2 with the lipid bilayers was observed. […] When titrated with a mammal-mimetic lipid bilayer vesicle (circles), the fluorescence intensity of the phenolic moiety increases due to insertion in the apolar environment created by the lipids. The POPC system mimetizes the external layer of human cell membranes, whereas POPG lipidic mixture mimetizes the internal layer of human cell membranes.
In order to confirm that these plasma-stable KTP-NH2 derivatives maintained their lipophilicity, their potential interaction with human cell membranes was assessed. Again, we performed biophysical studies using fluorescent methodologies (Santos N. C., Prieto M. and Castanho M. A. 2003. Quantifying molecular partition into model systems of biomembranes: an emphasis on optical spectroscopic methods. Biochim Biophys Acta 1612: 123-135.).

CC(C)Cc1ccc([C@H](C)C(=O)N[C@@H](Cc2ccc(O)cc2)C(=O)N[C@@H](CCCNC(=N)N)C(N)=O)cc1 [Ibu-KTP-NH2, Ibuprofen-L-Tyrosyl-L-Arginine-NH2]
depth of insertion from the lipid/water interface [1]: 3 Å
analgesic effect compared with KTP-NH2 [2]: improved effect
analgesic effect compared with KTP-NH2 [3]: improved effect
local concentration in the model membrane of mammals relative to surrounding bulk aqueous phase [4]: ~190 fold
